This passage reports crude yield and crude mass results from paper PMC6611794 (Nature Communications, 2019).

Data set [1] can be described thus: general procedure: Fmoc solid-phase peptide synthesis; TentaGel beads, photocleavable linker; HATU/HOAt/i-Pr2NEt in NMP; DIC/DMAP for esterification; PyBOP/2,4,6-collidine fo. The conditions noted are these: whole synthesis, overall from 29 over 26 steps, by MS and UHPLC, scale of the general procedure several milligram scale of the general procedures.
Data set [2] can be described thus: general procedure: Fmoc solid-phase peptide synthesis; Fmoc-L-Glu(Wang resin)-OAllyl (0.45 or 0.746 mmol/g); TentaGel Macrobeads with photocleavable linker for OBOC; HATU/HOAt/i-Pr2NEt in NMP; DIC/DMAP for esterification; PyBOP/2,4,6-collidine fo. The conditions noted are these: whole synthesis.

On to lysocin E, for which, in data set [1], the crude yield is listed as 5.1%. In data set [2], this substance showed a crude mass of 0.25 µg.
